For this assay, the target named is Lin-9 (core subunit of the DREAM complex) (human (endogenous in CaSki and T98G)) (UniProt Q5TKA1). Briefly: co-IP; nuclear lysates of T98G cells transfected with HA-p130 constructs alone or together with 16E7 or 48E7, precipitated with Lin-9 antibody or pre-immune serum; HA-p130 detected on western blots.

By UniProt entry, the sequences of proteins in these tests, tags left out. Where a name states a change or a piece, a line headed by the entry shows the natural chain unless it says otherwise.
UniProt Q5TKA1: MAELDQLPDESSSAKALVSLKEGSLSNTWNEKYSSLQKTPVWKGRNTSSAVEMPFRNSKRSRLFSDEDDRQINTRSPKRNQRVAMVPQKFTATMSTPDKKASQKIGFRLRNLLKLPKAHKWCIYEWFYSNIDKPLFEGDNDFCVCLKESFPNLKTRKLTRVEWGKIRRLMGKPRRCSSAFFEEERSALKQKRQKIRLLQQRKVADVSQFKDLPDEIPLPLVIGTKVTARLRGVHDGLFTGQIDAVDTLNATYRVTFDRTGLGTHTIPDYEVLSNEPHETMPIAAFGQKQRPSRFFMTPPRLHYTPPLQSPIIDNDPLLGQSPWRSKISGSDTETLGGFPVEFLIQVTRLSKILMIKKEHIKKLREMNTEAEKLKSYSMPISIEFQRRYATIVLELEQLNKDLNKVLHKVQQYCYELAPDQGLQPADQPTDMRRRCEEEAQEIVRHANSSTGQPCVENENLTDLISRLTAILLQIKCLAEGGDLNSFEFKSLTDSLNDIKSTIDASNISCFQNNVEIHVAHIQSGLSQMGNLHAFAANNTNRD
UniProt Q08999: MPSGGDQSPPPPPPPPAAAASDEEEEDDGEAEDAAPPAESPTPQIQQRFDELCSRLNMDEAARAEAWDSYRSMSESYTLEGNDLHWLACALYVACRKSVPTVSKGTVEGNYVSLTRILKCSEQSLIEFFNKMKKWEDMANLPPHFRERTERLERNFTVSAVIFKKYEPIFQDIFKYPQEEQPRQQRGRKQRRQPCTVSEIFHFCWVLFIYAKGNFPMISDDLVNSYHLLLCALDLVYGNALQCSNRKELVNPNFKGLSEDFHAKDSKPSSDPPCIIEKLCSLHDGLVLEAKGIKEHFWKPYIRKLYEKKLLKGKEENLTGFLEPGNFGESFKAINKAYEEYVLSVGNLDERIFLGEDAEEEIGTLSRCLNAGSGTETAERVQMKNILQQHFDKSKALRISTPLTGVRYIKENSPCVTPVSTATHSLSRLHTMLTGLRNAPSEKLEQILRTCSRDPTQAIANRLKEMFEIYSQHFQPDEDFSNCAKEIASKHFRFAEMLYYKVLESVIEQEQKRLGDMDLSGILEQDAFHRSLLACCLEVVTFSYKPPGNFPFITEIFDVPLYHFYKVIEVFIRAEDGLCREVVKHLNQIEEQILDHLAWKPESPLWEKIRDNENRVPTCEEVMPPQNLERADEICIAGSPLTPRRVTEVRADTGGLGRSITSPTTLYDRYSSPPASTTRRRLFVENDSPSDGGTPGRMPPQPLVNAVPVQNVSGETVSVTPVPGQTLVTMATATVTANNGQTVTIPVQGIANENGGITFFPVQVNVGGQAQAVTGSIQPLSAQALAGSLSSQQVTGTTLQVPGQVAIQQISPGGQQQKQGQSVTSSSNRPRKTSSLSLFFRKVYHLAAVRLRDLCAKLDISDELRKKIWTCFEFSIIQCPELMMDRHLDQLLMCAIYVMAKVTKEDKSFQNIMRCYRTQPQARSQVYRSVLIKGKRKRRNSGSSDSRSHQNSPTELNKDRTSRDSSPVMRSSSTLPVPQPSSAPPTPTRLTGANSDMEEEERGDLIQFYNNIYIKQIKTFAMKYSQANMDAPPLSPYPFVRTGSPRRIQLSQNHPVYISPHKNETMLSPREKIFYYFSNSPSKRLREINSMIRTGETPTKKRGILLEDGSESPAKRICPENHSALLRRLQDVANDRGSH

No constants are given. Whether binding was seen depends on the method and setting. In cells and extracts the contact can be indirect. Binding calls can cover weak binding; strength is not graded here.

Consider “HA-tagged p130PM22 (p130 mutated at the 22 CDK phosphorylation sites) (from UniProt Q08999)”, for which the binding result is reported as “binds”.
